Values from PubChem BioAssay AID686938 (Drosophila RNAi Screening Center, 2013).
Screen: 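Looking for CRAC channel components and the factors controlling them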 (primary screen). Cells: Drosophila S2R+ cells. Knock-down reagent: long dsRNA against Drosophila genes, about 0.25 µg dsRNA per well, roughly 10,000 cells. Duration: 5 days of knock-down before the calcium assay. Challenge: thapsigargin (SERCA pump blocker) to empty calcium stores; entry signal taken 4 min after adding it. Detection: 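Per-well fluo-4 fluorescence in two replicates, unnormalised, measured in resting cells and 4 min after store depletion by the SERCA blocker thapsigargin; ratio of the two present in few wells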. Scale: calcium entry signal: higher = stronger calcium signal after store depletion; entry to resting ratio: higher = more calcium entry relative to resting level; resting calcium signal: higher = higher resting calcium signal. Call rule: 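Hit if the duplicate-averaged plate z-score for entry over resting signal is under −3; wells with weak total dye signal (Fmax z < −2) or more than 5 off-targets removed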. Calls: active = strongly reduced calcium entry; inactive = no strong reduction.
The deposit covers about 23,000 reagents; below is an unselected part of those that have a named target and a result. In the full data, 75 (0.33%) are marked active. 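Raw plate signals without normalisation; calls rest on plate z-scores that were not deposited; ratio present for only 364 wells.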 Names joined by + are all predicted targets of the reagent. Reagent sequences are not shown. The record does not give: the dose of the treatment.

predicted target	DRSC id	calcium entry signal, replicate 1 (fluorescence units)	calcium entry signal, replicate 2 (fluorescence units)	entry to resting ratio	resting calcium signal, replicate 1 (fluorescence units)	resting calcium signal, replicate 2 (fluorescence units)	call
CG3038 (GeneID 30970)	DRSC18618	3.83e7	5.96e7	2.1	1.85e7	2.62e7	inactive
CG2611 (GeneID 35324)	DRSC02710	4.20e7			2.12e7		inactive
CG42557 + CG42558	DRSC13963	4.14e7	3.58e7		1.95e7	1.94e7	inactive
CG42557 + CG42558	DRSC16329	3.31e7	4.12e7		1.55e7	1.85e7	inactive
Polr1C (GeneID 33712)	DRSC02719	2.07e7			1.10e7		inactive
CG15210 (GeneID 50323)	DRSC19656	3.39e7	3.75e7		1.54e7	1.68e7	inactive
Sirt2 (GeneID 42414)	DRSC15714	3.23e7	4.97e7		5.38e7	2.20e7	inactive
CG5835 (GeneID 42296)	DRSC15886	3.59e7	3.77e7		4.96e7	1.70e7	inactive
CG18577 (GeneID 41337)	DRSC15352	2.03e7	2.26e7		1.17e7	1.15e7	inactive
betaTub60D (GeneID 37888)	DRSC04673	4.25e7	4.00e7		2.20e7	1.78e7	inactive
betaTub60D (GeneID 37888)	DRSC22218	4.09e7	4.67e7		1.86e7	2.64e7	inactive
Atg18b (GeneID 35396)	DRSC03108	3.74e7			1.94e7		inactive
Rat1 (GeneID 33964)	DRSC02044	2.96e7			1.79e7		inactive
CG11911 (GeneID 33206)	DRSC00331	3.91e7			2.16e7		inactive
bdl (GeneID 33635)	DRSC00271	4.83e7			2.52e7		inactive
Unc-115b + p24-2 + Unc-115a	DRSC16502	3.09e7	2.96e7		1.50e7	1.50e7	inactive
CG10444 (GeneID 37294)	DRSC05990	2.69e7	2.07e7		1.72e7	1.32e7	inactive
Dgkepsilon (GeneID 36408)	DRSC07399	4.81e7	4.46e7		2.02e7	2.00e7	inactive
KLHL18 (GeneID 41458)	DRSC15496	2.88e7	4.09e7		1.35e7	1.71e7	inactive
roh (GeneID 246602)	DRSC04003	2.55e7	3.74e7		1.33e7	1.63e7	inactive
tra2 (GeneID 36619)	DRSC07708	4.21e7	4.76e7		1.74e7	2.24e7	inactive
CG31808 (GeneID 10178782)	DRSC22962	3.17e7	3.14e7		1.56e7	1.49e7	inactive
CG4393 (GeneID 42764)	DRSC15573	4.52e7	5.17e7		2.39e7	1.95e7	inactive
CG8578 (GeneID 32540)	DRSC20114	4.34e7	4.60e7		2.08e7	2.12e7	inactive
Oseg4 (GeneID 38219)	DRSC08548	3.40e7	2.94e7		1.52e7	1.39e7	inactive
Or56a (GeneID 37269)	DRSC07495	5.60e7	6.33e7		2.36e7	2.95e7	inactive
Cpr47Ea (GeneID 36188)	DRSC07333	2.37e7	3.36e7		1.25e7	1.41e7	inactive
CG14257 (GeneID 43257)	DRSC14752	3.26e7	5.17e7		1.77e7	2.25e7	inactive
RhoGEF3 (GeneID 38050)	DRSC08266	2.36e7	2.07e7		1.82e7	1.36e7	inactive
RhoGEF3 (GeneID 38050)	DRSC08351	4.32e7	5.14e7		2.19e7	2.26e7	inactive
RhoGEF3 (GeneID 38050)	DRSC08352	3.41e7	5.00e7		1.80e7	2.14e7	inactive
RhoGEF3 (GeneID 38050)	DRSC08353	4.37e7	4.76e7		2.09e7	1.91e7	inactive
Tsp42Ep (GeneID 35626)	DRSC06871	4.28e7			2.23e7		inactive
Wdr92 (GeneID 39997)	DRSC10187	4.22e7	7.13e7		2.20e7	2.82e7	inactive
amrt (GeneID 32342)	DRSC19378	1.65e7	1.96e7		1.00e7	1.05e7	inactive
CG6013 (GeneID 42286)	DRSC15947	2.93e7	2.47e7		1.47e7	1.17e7	inactive
CG17147 (GeneID 40216)	DRSC10249	1.74e7	3.16e7		1.00e7	1.47e7	inactive
Fadd (GeneID 42594)	DRSC14122	4.24e7	5.15e7		3.43e7	2.30e7	inactive
to (GeneID 43036)	DRSC17086	3.64e7	5.44e7		1.78e7	2.20e7	inactive
H2.0 (GeneID 33841)	DRSC03340	3.46e7	4.58e7		1.64e7	2.23e7	inactive
H2.0 (GeneID 33841)	DRSC22555	4.33e7	3.85e7		2.13e7	1.55e7	inactive
RpL37-1 (GeneID 32446)	DRSC20149	3.91e7	4.33e7		2.04e7	1.94e7	inactive
RpL37-1 (GeneID 32446)	DRSC21646	1.31e7	1.80e7		8.66e6	1.06e7	inactive
CG1537 (GeneID 32037)	DRSC19662	3.31e7	5.26e7		1.70e7	2.52e7	inactive
CG30048 (GeneID 246415)	DRSC22205	3.57e7	4.14e7		1.77e7	2.20e7	inactive
Sf3a1 (GeneID 42048)	DRSC15166	1.77e7	1.83e7		1.23e7	1.13e7	active
CG17325 + CG42305	DRSC02602	3.72e7	3.83e7		1.83e7	1.80e7	inactive
CG4338 (GeneID 41849)	DRSC15564	3.85e7	5.11e7		1.67e7	2.25e7	inactive
CG31525 (GeneID 318782)	DRSC12004	3.50e7	2.91e7		1.82e7	1.43e7	inactive
Ripalpha (GeneID 34351)	DRSC02657	2.36e7	3.83e7		1.18e7	1.63e7	inactive
Irbp18 (GeneID 39243)	DRSC10612	2.58e7	3.45e7		1.35e7	1.71e7	inactive
CG12990 (GeneID 32747)	DRSC19510	2.72e7	3.33e7		1.43e7	1.40e7	inactive
Cpsf73 (GeneID 42240)	DRSC16291	2.13e7	2.13e7		4.78e7	1.11e7	inactive
CG1785 (GeneID 31810)	DRSC18139	2.19e7	2.69e7		1.19e7	1.36e7	inactive
lncRNA:CR43302 (GeneID 12798065)	DRSC12668	3.70e7	6.16e7		1.79e7	2.70e7	inactive
CG31743 + CG34313	DRSC02781	4.61e7			2.26e7		inactive
CG31743 + CG34313	DRSC02782	3.67e7	2.78e7		1.74e7	1.20e7	inactive
CG13220 (GeneID 36200)	DRSC06342	2.36e7	4.25e7		1.27e7	1.73e7	inactive

3 entries already listed, arranged by “calcium entry signal, replicate 1 (fluorescence units)”, ascending.
predicted target	DRSC id	calcium entry signal, replicate 1 (fluorescence units)	calcium entry signal, replicate 2 (fluorescence units)	entry to resting ratio	resting calcium signal, replicate 1 (fluorescence units)	resting calcium signal, replicate 2 (fluorescence units)	call
Oseg4 (GeneID 38219)	DRSC08548	3.40e7	2.94e7		1.52e7	1.39e7	inactive
CG8578 (GeneID 32540)	DRSC20114	4.34e7	4.60e7		2.08e7	2.12e7	inactive
Or56a (GeneID 37269)	DRSC07495	5.60e7	6.33e7		2.36e7	2.95e7	inactive
